Test system: vaccinia virus mature virions (EGFP-MV)
Format: cell-based

## CN[C@@H]1C[C@H]2O[C@@](C)([C@@H]1OC)n1c3ccccc3c3c4c(c5c6ccccc6n2c5c31)C(=O)NC4 [Staurosporin]
  inhibition of viral infection: up to 65%

Reference: patent US20100272706A1, “ANTIVIRALS” (priority 2007, published 2010)
